Results are given in words; binding and its absence hold for the method and conditions named. Some binding calls cover weakened binding; strength is not graded here.

Protein sequences, listed by entry. Tags and fused reporters are not part of them. Lines headed by an entry give the natural chain unless they say otherwise; changes in a name come on top.
UniProt Q9UDY4: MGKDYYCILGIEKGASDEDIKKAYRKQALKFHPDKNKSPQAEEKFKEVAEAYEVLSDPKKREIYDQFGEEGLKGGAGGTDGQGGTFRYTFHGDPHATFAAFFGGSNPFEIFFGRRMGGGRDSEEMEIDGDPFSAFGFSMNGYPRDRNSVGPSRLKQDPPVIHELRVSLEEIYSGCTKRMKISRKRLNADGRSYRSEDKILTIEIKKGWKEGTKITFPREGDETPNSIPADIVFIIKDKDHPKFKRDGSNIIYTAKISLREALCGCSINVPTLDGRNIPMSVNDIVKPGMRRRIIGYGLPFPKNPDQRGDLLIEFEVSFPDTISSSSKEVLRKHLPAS
UniProt P0DMV8: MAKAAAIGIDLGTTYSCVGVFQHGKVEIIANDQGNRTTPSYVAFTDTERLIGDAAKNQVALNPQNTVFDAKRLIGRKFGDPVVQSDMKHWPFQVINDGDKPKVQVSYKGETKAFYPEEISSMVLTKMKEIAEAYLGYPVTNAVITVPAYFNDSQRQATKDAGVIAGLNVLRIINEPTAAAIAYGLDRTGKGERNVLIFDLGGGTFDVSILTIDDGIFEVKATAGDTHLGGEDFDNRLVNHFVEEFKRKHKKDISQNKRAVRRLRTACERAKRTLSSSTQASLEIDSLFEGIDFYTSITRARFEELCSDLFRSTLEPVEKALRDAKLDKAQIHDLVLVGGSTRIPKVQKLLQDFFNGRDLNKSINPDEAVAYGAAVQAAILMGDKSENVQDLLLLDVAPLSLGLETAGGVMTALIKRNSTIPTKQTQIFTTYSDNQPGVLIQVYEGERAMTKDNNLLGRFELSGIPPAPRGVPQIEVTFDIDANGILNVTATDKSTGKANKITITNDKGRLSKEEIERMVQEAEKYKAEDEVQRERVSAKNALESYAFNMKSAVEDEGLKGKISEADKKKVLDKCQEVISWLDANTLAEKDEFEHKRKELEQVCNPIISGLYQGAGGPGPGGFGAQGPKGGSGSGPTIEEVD

The target in this assay is DnaJB4 (recombinant, human, full length, wild type) (human) (UniProt Q9UDY4). Kind of assay: fluorescence polarisation. Background: Fluorescence polarisation rises when a labelled molecule tumbles more slowly, as on binding a larger partner.

Take “Hsp72 C-terminal peptide truncated by P10 and P9 (8-mer) (from UniProt P0DMV8 634-641)”: the binding entry was “binds”.

For “Hsp72 C-terminal peptide truncated by P10 (9-mer) (from UniProt P0DMV8 633-641)”, the binding entry was “binds”.

Source of the values: paper doi:10.1101/2021.10.18.464838.
